The structures appear in SMILES notation. The whole screen tested about 1,200 compounds, of which about 140 (12%) were called active.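 How the source made its calls: active means fitted curve falls past -35% activity change at a dose under twice the top valid dose, in every replicate test; inconclusive means replicate tests disagree on the call; inactive means the rest, including activity in the opposite direction.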 Most of the strongest results are missing from this list.

This test in a line: CFTR-F508del correctors, dose response, FRT cells, YFP quenching, cherry-pick (AID 743402).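 Further: compounds act as correctors raising surface CFTR-F508del before acute activation.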 To be noted: FRT CFTR-F508del YFP iodide quenching, 24 h, channel opened with forskolin and a potentiator; at 26 µM (top of the series) unless noted.
For the compound `Cc1onc(-c2ccccc2Cl)c1C(=O)N1CCN(c2cccc(Cl)c2)CC1`, the activity change, negative = more quenching (active) was inactive: 10%.
In the case of `COc1ccccc1NS(=O)(=O)c1cc(-c2cnc(C3CC3)o2)ccc1C`, the activity change, negative = more quenching (active) was inactive: 11.5%.
Turning to `CC1(C(=O)NCc2cccs2)Cc2c(-c3ccc4c(c3)OCO4)ccnc2O1` (stereo not drawn), the activity change, negative = more quenching (active) is inactive: 0%.
As for `O=C1CC(c2ccccc2)CC2=C1C=Nc1ccccc1N2` (stereo not drawn), the activity change, negative = more quenching (active) is inactive: 18.8%.
Under `Cc1ccc(C(=O)N/N=C/c2cc(Br)ccc2O)cn1` stands inactive: 16%.
Consider `COc1ccc([C@@H]2[C@@H]3C(=O)N(C(C)(C)C)C(=O)[C@@H]3[C@]3(Cc4ccccc4)C(=O)N(c4ccc(C(F)(F)F)cc4)C(=O)N23)cc1`, for which the activity change, negative = more quenching (active) is inactive: 6.67%.
For `NS(=O)(=O)c1ccc(NNC(=O)c2ccc(Br)o2)c([N+](=O)[O-])c1`, the activity change, negative = more quenching (active) is inactive: -3.12%.
For `Fc1ccc(/C=N/NC(=S)Nc2ccc(Cl)cc2Cl)cc1`, the activity change, negative = more quenching (active) was inactive: 16.2%.
Consider `COc1ccc(C(=O)Nc2ccccc2C(=O)Nc2ccccc2)cc1`, for which the activity change, negative = more quenching (active) was inactive: -7.42%.
As to `N#CC1=C(N)Oc2cc(N)ccc2C1c1cccc(F)c1` (stereo not drawn), the activity change, negative = more quenching (active) was inactive: 6.67%.
Turning to `COc1ccc2c(c1)C(O)C(CO)C(C(=O)O)C2` (stereo not drawn), the activity change, negative = more quenching (active) was inactive: 6.25%.
As to `CCCNC(=O)N1CC2(CN(CC3CCCCC3)C2)c2c(n(C)c3cc(OC)ccc23)[C@H]1CO`, the activity change, negative = more quenching (active) was inactive: 3.57%.
For `COc1cccc(CNC(=O)CSc2nc3ccc(C)cc3[nH]2)c1`, the activity change, negative = more quenching (active) is inactive: -3.33%.
Under `COC(=O)C1CC23C=CCN4CCC5(c6ccccc6NC15C2C)C43` (stereo not drawn) stands inactive: 10%; under `CCOC(=O)c1sc2nc(Cc3ccc(Cl)cc3)[nH]c(=S)c2c1C`, inactive: 15.6%; under `COc1ccc(C(=O)c2cc([N+](=O)[O-])ccc2N2CCN(C)CC2)cc1`, inactive: 9.79%.
For `COc1ccc(NC(=O)c2nc(C)c(C3(C)CC(c4ccccc4)=NO3)s2)cc1` (stereo not drawn), the activity change, negative = more quenching (active) is inactive: 14.8%.
With `COc1ccccc1Nc1c2c(nc3ccccc13)CCC2`, the activity change, negative = more quenching (active) was inactive: 35.6%.
For the compound `CC1CCN(C(=O)C2COc3ccccc3O2)CC1` (stereo not drawn), the activity change, negative = more quenching (active) is inactive: 3.33%.
Consider `NCC(=O)NNC(=O)OCC1c2ccccc2-c2ccccc21`, for which the activity change, negative = more quenching (active) is inactive: 0%.
Turning to `Cc1ccc(C)c(CSc2nc3[nH]ncc3c(=O)[nH]2)c1`, the activity change, negative = more quenching (active) was inactive: 5.42%.
On to `Cc1c(CCC(=O)O)c(=O)oc2c(C)c(OCc3ccccc3Cl)ccc12`, for which the activity change, negative = more quenching (active) is inactive: 6.67%.
Consider `O=C(c1cc(-c2ccncc2)nc2c(Cl)cccc12)N1CCN(c2ccccc2F)CC1`, for which the activity change, negative = more quenching (active) is inactive: 16.2%.
Take `C=CC[C@@H](CC(=O)N(CCO)Cc1ccccc1)C(=O)N[C@H](COC(=O)[C@H](CC=C)CC(=O)OC(C)(C)C)Cc1c[nH]c2ccccc12`: the activity change, negative = more quenching (active) was inactive: 16.2%.
In the case of `NC(=O)N=Nc1c2[nH]c3ccccc3nc-2c2ccccc12`, the activity change, negative = more quenching (active) is inactive: -29.2%.
`Cc1cc(/C=N/n2c(COc3ccccc3C)nc3ccccc3c2=O)c(O)c([N+](=O)[O-])c1`: the activity change, negative = more quenching (active) was inactive: 0%.
For the compound `O=C(CN1C(=O)NC2(CCCCCCC2)C1=O)Nc1ccc(Br)cc1`, the activity change, negative = more quenching (active) was inactive: 6.67%.
Turning to `CCCNC(=O)N1[C@H](C#N)[C@H](c2ccc(C#Cc3ccc(F)cc3)cc2)[C@@H]1CO`, the activity change, negative = more quenching (active) is inactive: 8.74%.
The result for `CCOC(=O)c1c(NC(=O)C2c3ccccc3Oc3ccccc32)sc(C(C)=O)c1C` reads inactive: -10.7%; that for `CCN(C(=O)CSc1nc2ccccc2c(=O)n1-c1ccccc1F)C1CCS(=O)(=O)C1` (stereo not drawn), inactive: -6.67%.
For the compound `CCN(C(=O)CSc1nnc(C)n1-c1ccc(C)cc1)c1c(N)n(Cc2ccccc2)c(=O)[nH]c1=O`, the activity change, negative = more quenching (active) was inactive: 6.46%.
Take `COc1ccc(NC(=O)c2ccc(NC(=O)c3nc4nccc(C)n4n3)cc2)cc1`: the activity change, negative = more quenching (active) is inactive: 0%.
The result for `S=C(NCCc1ccccc1)Nc1nccs1` reads inactive: 3.57%; that for `COC(=O)CNc1cc(S(=O)(=O)N2CCCCC2)ccc1Oc1ccc(C(=O)OC)cc1`, inactive: 8.28%; that for `CC1(c2ccc3ccccc3c2)CCC(=O)O1` (stereo not drawn), inactive: 13.3%.
Regarding `Cc1nc(/N=C(\N)NC(=O)NC2CCCCC2)nc2ccccc12`, the activity change, negative = more quenching (active) is inactive: -21.3%.
In the case of `C[C@@H]1CN([C@H](C)CO)C(=O)c2cc(NC(=O)Cc3ccccc3)ccc2O[C@@H]1CN(C)S(C)(=O)=O`, the activity change, negative = more quenching (active) is inactive: 17% [at 23.5 µM].
For the compound `CCCCn1cnc2c(c(CC#N)nn2-c2ccccc2)c1=N`, the activity change, negative = more quenching (active) was inactive: 3.33%.
For `N#Cc1c(-c2ccc(F)cc2)c(-c2ccc(F)cc2)nn(CCO)c1=O`, the activity change, negative = more quenching (active) was inactive: 20%.
`COC(=O)C[C@@H]1CC[C@@H]2[C@H](COc3ccc(NC(=O)c4ccc(C(F)(F)F)cc4)cc3C(=O)N2C)O1`: the activity change, negative = more quenching (active) was inactive: 3.57%.
In the case of `Cc1ccc(S(=O)(=O)N2CCOCC2)cc1NC(=O)CSc1nnc(COc2ccccc2F)n1N`, the activity change, negative = more quenching (active) was inactive: 20%.
In the case of `CC12CCC3c4ccc(O)cc4CCC3C1CCC2=O` (stereo not drawn), the activity change, negative = more quenching (active) is inactive: -3.33%.
For `COc1cc2c(C#CCCO)c(-c3ccsc3)oc(=O)c2cc1OC`, the activity change, negative = more quenching (active) is inactive: -16%.
